# Assay results as given in the supplement of paper PMC8728848.
# This is one part of the list.
# B1: LlpA1 (Pseudomonas fluorescens), Q4KHC3 (protein)
# chain: MGSSHHHHHHSSGLVPRGSHMAWIRYDFTDNGSSVLPARYYMAPNQYLQSPNKRFKLLFQADGNLALYDGAQLAWVADQNTPFTNVSKGNKKDPMMVFMNYGFVLDDPLRGRIWSTTPSDPTMGSREDASLRAFTQVQDDGNIVTVDTIPHWYAPNGRVFTPAVGAAMIIGGTTELVPGQFYSAGEHSLVFQGDGNLVVYGPNSSVIWATYTQNKGGVRCVMQEDGNLVIYAANNGVVWQSGTGGHPGATIRLQANGSFTIVTERPVWARFGYTPTIKPPRVFYPDHKWKTGSYTWNNVF
# Key:
# Test in all cases: glycan array binding signal (z-score within array); higher = stronger binding
# Settings in all cases: glycan notation: IUPAC condensed, linker removed
# [1] = target: Fuc(a1-2)Gal(b1-4)GlcNAc(b1-2)Man(a1-3)[Fuc(a1-2)Gal(b1-4)GlcNAc(b1-2)Man(a1-6)]Man(b1-4)GlcNAc(b1-4)[Fuc(a1-6)]GlcNAc
# In short: (§1)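 From the Consortium for Functional Glycomics database, 3228 arrays were curated, keeping only those whose protein sequence was available. Binding is given as a within-array Z-score averaged across arrays sharing a protein sequence and across linkers. Negative Z-scores can be read as non-binding.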
# [2] = target: Fuc(a1-2)Gal(b1-4)GlcNAc(b1-2)[Fuc(a1-2)Gal(b1-4)GlcNAc(b1-4)]Man(a1-3)[Fuc(a1-2)Gal(b1-4)GlcNAc(b1-2)Man(a1-6)]Man(b1-4)GlcNAc(b1-4)GlcNAc
# In short: as §1
# [3] = target: Fuc(a1-2)Gal(b1-4)GlcNAc(b1-3)Gal(b1-4)GlcNAc
# In short: as §1
# [4] = target: Fuc(a1-2)Gal(b1-4)GlcNAc(b1-3)Gal(b1-4)GlcNAc(b1-2)Man(a1-3)[Fuc(a1-2)Gal(b1-4)GlcNAc(b1-3)Gal(b1-4)GlcNAc(b1-2)Man(a1-6)]Man(b1-4)GlcNAc(b1-4)GlcNAc
# In short: as §1
# [5] = target: Fuc(a1-2)Gal(b1-4)GlcNAc(b1-3)Gal(b1-4)GlcNAc(b1-3)Gal(b1-4)GlcNAc
# In short: as §1
# [6] = target: Fuc(a1-2)Gal(b1-4)GlcNAc(b1-3)GalNAc
# In short: as §1
# [7] = target: Fuc(a1-2)Gal(b1-4)GlcNAc(b1-3)[Fuc(a1-2)Gal(b1-4)GlcNAc(b1-6)]GalNAc
# In short: as §1
# [8] = target: Fuc(a1-2)Gal(b1-4)GlcNAc(b1-3)[Fuc(a1-3)[Gal(b1-4)]GlcNAc(b1-6)]Gal(b1-4)Glc
# In short: as §1
# [9] = target: Fuc(a1-2)Gal(b1-4)GlcNAc(b1-6)GalNAc
# In short: as §1
# [10] = target: Fuc(a1-2)Gal(b1-4)GlcNAc6S
# In short: as §1
# [11] = target: Fuc(a1-2)Gal(b1-4)[Fuc(a1-3)]GlcNAc
# In short: as §1
# [12] = target: Fuc(a1-2)Gal(b1-4)[Fuc(a1-3)]GlcNAc(b1-2)Man(a1-3)[Fuc(a1-2)Gal(b1-4)[Fuc(a1-3)]GlcNAc(b1-2)Man(a1-6)]Man(b1-4)GlcNAc(b1-4)GlcNAc
# In short: as §1
# [13] = target: Fuc(a1-2)Gal(b1-4)[Fuc(a1-3)]GlcNAc(b1-2)Man(a1-3)[Fuc(a1-2)Gal(b1-4)[Fuc(a1-3)]GlcNAc(b1-2)Man(a1-6)]Man(b1-4)GlcNAc(b1-4)[Fuc(a1-6)]GlcNAc
# In short: as §1
# [14] = target: Fuc(a1-2)Gal(b1-4)[Fuc(a1-3)]GlcNAc(b1-2)Man(a1-6)[Fuc(a1-2)Gal(b1-4)[Fuc(a1-3)]GlcNAc(b1-2)Man(a1-3)]Man(b1-4)GlcNAc(b1-4)[Fuc(a1-6)]GlcNAc
# In short: as §1
# [15] = target: Fuc(a1-2)Gal(b1-4)[Fuc(a1-3)]GlcNAc(b1-2)[Fuc(a1-2)Gal(b1-4)[Fuc(a1-3)]GlcNAc(b1-4)]Man(a1-3)[Fuc(a1-2)Gal(b1-4)[Fuc(a1-3)]GlcNAc(b1-2)Man(a1-6)]Man(b1-4)GlcNAc(b1-4)GlcNAc
# In short: as §1
# [16] = target: Fuc(a1-2)Gal(b1-4)[Fuc(a1-3)]GlcNAc(b1-3)Gal(b1-4)[Fuc(a1-3)]GlcNAc
# In short: as §1
# [17] = target: Fuc(a1-2)Gal(b1-4)[Fuc(a1-3)]GlcNAc(b1-3)Gal(b1-4)[Fuc(a1-3)]GlcNAc(b1-3)Gal(b1-4)[Fuc(a1-3)]GlcNAc
# In short: as §1
# [18] = target: Fuc(a1-2)Gal(b1-4)[Fuc(a1-3)]GlcNAc(b1-3)GalNAc
# In short: as §1
# [19] = target: Fuc(a1-2)Gal(b1-4)[Fuc(a1-3)]GlcNAc(b1-3)[Neu5Ac(a2-6)Gal(b1-4)GlcNAc(b1-6)]Gal(b1-4)Glc
# In short: as §1
# [20] = target: Fuc(a1-2)Gal3S(b1-4)GlcNAc
# In short: as §1
# [21] = target: Fuc(a1-2)Gal6S(b1-3)GlcNAc
# In short: as §1
# [22] = target: Fuc(a1-2)Gal6S(b1-3)GlcNAc6S
# In short: as §1
# Fuc(a1-2)Gal6S(b1-4)Glc = target: Fuc(a1-2)Gal6S(b1-4)Glc
# In short: as §1
# [23] = target: Fuc(a1-2)Gal6S(b1-4)Glc6S
# In short: as §1
# [24] = target: Fuc(a1-2)Gal6S(b1-4)GlcNAc
# In short: as §1
# Fuc(a1-2)[Gal(a1-3)]Gal = target: Fuc(a1-2)[Gal(a1-3)]Gal
# In short: as §1
# [25] = target: Fuc(a1-2)[Gal(a1-3)]Gal(b1-3)GalNAc
# In short: as §1
# [26] = target: Fuc(a1-2)[Gal(a1-3)]Gal(b1-3)GalNAc(b1-3)Gal(a1-4)Gal(b1-4)Glc
# In short: as §1
# [27] = target: Fuc(a1-2)[Gal(a1-3)]Gal(b1-3)GlcNAc
# In short: as §1
# [28] = target: Fuc(a1-2)[Gal(a1-3)]Gal(b1-3)GlcNAc(b1-2)Man(a1-3)[Fuc(a1-2)[Gal(a1-3)]Gal(b1-3)GlcNAc(b1-2)Man(a1-6)]Man(b1-4)GlcNAc(b1-4)GlcNAc
# In short: as §1
# [29] = target: Fuc(a1-2)[Gal(a1-3)]Gal(b1-3)GlcNAc(b1-2)Man(a1-3)[Fuc(a1-2)[Gal(a1-3)]Gal(b1-3)GlcNAc(b1-2)Man(a1-6)]Man(b1-4)GlcNAc(b1-4)[Fuc(a1-6)]GlcNAc
# In short: as §1
# [30] = target: Fuc(a1-2)[Gal(a1-3)]Gal(b1-3)GlcNAc(b1-3)GalNAc
# In short: as §1
# [31] = target: Fuc(a1-2)[Gal(a1-3)]Gal(b1-3)GlcNAc(b1-6)GalNAc
# In short: as §1
# [32] = target: Fuc(a1-2)[Gal(a1-3)]Gal(b1-4)Glc
# In short: as §1
# [33] = target: Fuc(a1-2)[Gal(a1-3)]Gal(b1-4)GlcNAc
# In short: as §1
# [34] = target: Fuc(a1-2)[Gal(a1-3)]Gal(b1-4)GlcNAc(b1-2)Man
# In short: as §1
# [35] = target: Fuc(a1-2)[Gal(a1-3)]Gal(b1-4)GlcNAc(b1-2)Man(a1-3)[Fuc(a1-2)[Gal(a1-3)]Gal(b1-4)GlcNAc(b1-2)Man(a1-6)]Man(b1-4)GlcNAc(b1-4)GlcNAc
# In short: as §1
binder,measurement,setting,value
B1,glycan array binding signal (z-score),[1],0.466
same,glycan array binding signal (z-score),[2],0.461
same,glycan array binding signal (z-score),[3],-0.073
same,glycan array binding signal (z-score),[4],0.02
same,glycan array binding signal (z-score),[5],-0.012
same,glycan array binding signal (z-score),[6],-0.734
same,glycan array binding signal (z-score),[7],-0.395
same,glycan array binding signal (z-score),[8],-0.454
same,glycan array binding signal (z-score),[9],0.386
same,glycan array binding signal (z-score),[10],-0.574
same,glycan array binding signal (z-score),[11],-0.526
same,glycan array binding signal (z-score),[12],1.11
same,glycan array binding signal (z-score),[13],-0.257
same,glycan array binding signal (z-score),[14],-0.542
same,glycan array binding signal (z-score),[15],-0.042
same,glycan array binding signal (z-score),[16],-0.508
same,glycan array binding signal (z-score),[17],0.739
same,glycan array binding signal (z-score),[18],2.56
same,glycan array binding signal (z-score),[19],-0.445
same,glycan array binding signal (z-score),[20],-0.21
same,glycan array binding signal (z-score),[21],-0.108
same,glycan array binding signal (z-score),[22],0.35
same,glycan array binding signal (z-score),Fuc(a1-2)Gal6S(b1-4)Glc,0.128
same,glycan array binding signal (z-score),[23],-0.197
same,glycan array binding signal (z-score),[24],-0.1
same,glycan array binding signal (z-score),Fuc(a1-2)[Gal(a1-3)]Gal,0.141
same,glycan array binding signal (z-score),[25],0.724
same,glycan array binding signal (z-score),[26],-0.507
same,glycan array binding signal (z-score),[27],-0.148
same,glycan array binding signal (z-score),[28],-0.032
same,glycan array binding signal (z-score),[29],1.44
same,glycan array binding signal (z-score),[30],-0.628
same,glycan array binding signal (z-score),[31],-0.038
same,glycan array binding signal (z-score),[32],-0.437
same,glycan array binding signal (z-score),[33],-0.643
same,glycan array binding signal (z-score),[34],-0.603
same,glycan array binding signal (z-score),[35],0.423

# 2 entries from above, tab-delimited.
binder	measurement	setting	value
B1	glycan array binding signal (z-score)	[17]	0.739
same	glycan array binding signal (z-score)	[28]	-0.032
